# Results are given in words; binding and its absence hold for the method and conditions named. Binding can be weak; no strength is given.
# How the values were obtained:
# [1] = molecular target: T1, strep-CsoS1A (hexameric shell protein CsoS1A) (Halothiobacillus neapolitanus) (UniProt P45689); experiment: native gel or EMSA
# T1 sequence: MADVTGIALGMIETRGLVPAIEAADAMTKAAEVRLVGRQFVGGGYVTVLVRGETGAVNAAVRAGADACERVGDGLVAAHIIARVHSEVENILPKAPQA
# [2] = molecular target: T1, strep-CsoS1A (hexameric shell protein CsoS1A) (Halothiobacillus neapolitanus); experiment: turbidity
substance,measurement,setting,value
"6xHis-wtMR-strep (wild-type Middle Region of CsoS2, repeats 1-6) (Halothiobacillus neapolitanus) (domain or fragment)",binding,[1],binds
same,binding,[2],binds

# Source: article doi:10.1101/2023.07.08.548221
